Percent effect of library compounds

Chains of the proteins cited; added tags and fusions are not shown. Residues count along the entry.
UniProt P9WPC5, whole entry: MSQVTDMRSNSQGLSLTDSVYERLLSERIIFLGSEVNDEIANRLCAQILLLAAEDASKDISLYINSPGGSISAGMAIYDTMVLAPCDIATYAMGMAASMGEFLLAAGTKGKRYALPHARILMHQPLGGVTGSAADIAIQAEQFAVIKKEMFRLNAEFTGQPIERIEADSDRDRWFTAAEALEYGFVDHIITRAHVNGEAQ
UniProt P9WPC3, whole entry partner: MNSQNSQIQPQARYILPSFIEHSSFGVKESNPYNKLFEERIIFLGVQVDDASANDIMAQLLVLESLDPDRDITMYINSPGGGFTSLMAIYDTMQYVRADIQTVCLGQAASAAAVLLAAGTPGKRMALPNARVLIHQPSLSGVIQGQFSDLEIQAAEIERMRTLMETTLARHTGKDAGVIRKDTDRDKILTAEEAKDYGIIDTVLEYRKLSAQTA
UniProt P9WNZ1, whole entry: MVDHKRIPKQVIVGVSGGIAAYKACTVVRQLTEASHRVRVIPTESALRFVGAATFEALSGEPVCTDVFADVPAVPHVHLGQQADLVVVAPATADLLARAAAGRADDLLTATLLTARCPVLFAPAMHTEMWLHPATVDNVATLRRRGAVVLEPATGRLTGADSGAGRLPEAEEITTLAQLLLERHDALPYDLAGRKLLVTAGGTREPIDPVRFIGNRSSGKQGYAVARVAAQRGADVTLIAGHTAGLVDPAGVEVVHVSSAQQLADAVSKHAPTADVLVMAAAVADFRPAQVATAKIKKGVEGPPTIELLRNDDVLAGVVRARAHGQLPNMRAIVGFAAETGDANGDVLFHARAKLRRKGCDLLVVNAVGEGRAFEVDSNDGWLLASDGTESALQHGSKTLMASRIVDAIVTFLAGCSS
UniProt Q8IDJ8, 1-583: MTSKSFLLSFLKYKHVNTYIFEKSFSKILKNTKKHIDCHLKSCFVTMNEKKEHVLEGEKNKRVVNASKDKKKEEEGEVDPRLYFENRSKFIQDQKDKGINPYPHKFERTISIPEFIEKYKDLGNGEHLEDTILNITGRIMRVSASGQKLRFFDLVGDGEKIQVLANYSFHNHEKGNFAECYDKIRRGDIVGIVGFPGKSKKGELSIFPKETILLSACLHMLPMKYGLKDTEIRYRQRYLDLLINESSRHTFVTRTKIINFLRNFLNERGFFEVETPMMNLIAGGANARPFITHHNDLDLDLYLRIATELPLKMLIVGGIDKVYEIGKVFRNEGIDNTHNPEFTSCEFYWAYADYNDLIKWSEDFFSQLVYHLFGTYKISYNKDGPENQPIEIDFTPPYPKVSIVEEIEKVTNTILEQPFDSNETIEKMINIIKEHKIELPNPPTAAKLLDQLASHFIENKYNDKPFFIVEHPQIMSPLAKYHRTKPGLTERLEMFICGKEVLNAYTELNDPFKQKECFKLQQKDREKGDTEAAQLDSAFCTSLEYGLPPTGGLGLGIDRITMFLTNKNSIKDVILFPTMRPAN

Data taken from ChEMBL document CHEMBL3988442, “University of Dundee, Small-Polar-MMV Screening Library” (2021).

ClpP1P2: 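ClpP1P2, Mycobacterium tuberculosis (UniProt P9WPC5 and UniProt P9WPC3). Protease assay of ClpP1P2, read by the AMC dye that it sets free. Concentration: 50 µM. Higher reads as stronger inhibition, judged from the few compounds that gave an IC50. Most other retested compounds had strongly negative values. Of about 69,000 compounds tested this way, about 10 (0.015%) reached 50% or more in at least one test.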
CoaBC: 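Coenzyme A biosynthesis protein CoaBC, Mycobacterium tuberculosis (UniProt P9WNZ1). Enzyme assay of CoaBC with a phosphate dye (Biomol Green) read at 650 nm. Compounds at 30 µM. Higher reads as stronger inhibition, judged from the few compounds that gave an IC50. Most strong results did not repeat in a second test. Size under these conditions: about 67,000 compounds, about 40 of them at 50% or above in at least one test.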
PfKRS1: 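Enzyme assay of the cytosolic lysyl-tRNA synthetase in 384-well plates, read by luminescence. Target: Lysine-tRNA ligase, Plasmodium falciparum 3D7 (UniProt Q8IDJ8). Concentration: 30 µM. Direction is inferred from only a few compounds that gave an IC50; most scored high, so higher reads as stronger inhibition. About 69,000 compounds were tested under these conditions; 0.071% (about 49) showed 50% or more at least once.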

Values are the deposited “Percent Effect”, in %. How 0% and 100% were set is not recorded. Most values in the screen are low, and negative values occur. The compounds are a random part of those screened.

COCC(=O)N1CCC2(CC1)CC(CC(=O)NC1CC1)c1ccccc12 (configuration not stated) gave ClpP1P2: 1.701%; CoaBC: 5.277%; PfKRS1: -0.285%.
c1cnnc(N2CCCC(NCc3ccc(-n4cccn4)cc3)C2)c1 (configuration not stated) gave ClpP1P2: -7.26%; CoaBC: 7.436%; PfKRS1: 2.459%.
COc1cnc(CSc2nnc(C)s2)cc1OCC(N)=O gave ClpP1P2: -7.665%; CoaBC: -0.5063%; PfKRS1: 4.903%.
Cn1cnnc1C1CCN(c2nc3ccccc3o2)CC1 gave ClpP1P2: 7.202%; CoaBC: -1.46%; PfKRS1: 1.197%.
N#Cc1cccc(S(=O)(=O)Nc2c(F)cccc2N2CCCC2)c1 gave ClpP1P2: -16.93%; CoaBC: -0.615%; PfKRS1: 2.793%.
Cc1nc(CN2CCC3(CC2)CCN(C(=O)c2cscn2)C3)cs1 gave ClpP1P2: -2.717%; CoaBC: 6.304%; PfKRS1: -0.4497%.
CC(C)N1CCCC(C(=O)NCc2noc(Cc3ccccc3)n2)C1 (configuration not stated) gave ClpP1P2: 14.39%; CoaBC: 4.95%; PfKRS1: 1.26%.
CCc1nccn1CC1CCCN1S(=O)(=O)N1CCCOCC1 (configuration not stated) gave ClpP1P2: -3.329%; CoaBC: 4.084%; PfKRS1: 5.824%.
c1csc(C(CNCc2cccc3c2OCO3)N2CCOCC2)c1 (configuration not stated) gave ClpP1P2: -13.33%; CoaBC: 1.263%; PfKRS1: 4.219%.
Cn1cnc2c1C(COCC1CC1)CN(Cc1ccsc1)C2 (configuration not stated) gave ClpP1P2: -4.213%; CoaBC: -1.394%; PfKRS1: 0.02378%.
COc1ccc(Nc2nc3c(C)nn(C)c3c(=O)n2C)c(C)c1 gave ClpP1P2: 18.35%; CoaBC: 13.66%; PfKRS1: 2.763%.
CN1C(=O)CCc2cc(NC(=O)C3CCCC3)ccc21 gave ClpP1P2: 18.25%; CoaBC: -4.44%; PfKRS1: -1.618%.
CCN1CCN(c2ccc(F)cc2C(C)NCc2ccccn2)CC1 (configuration not stated) gave ClpP1P2: 15.47%; CoaBC: -9.013%; PfKRS1: -0.6118%.
COC(=O)CNC(=O)N1CCN(c2nc3ccccc3n2C)CC1 gave ClpP1P2: 0.8897%; CoaBC: 3.971%; PfKRS1: 2.756%.
CC(C)n1cc(CN2CCCN(C(=O)c3ccoc3)CC2)cn1 gave ClpP1P2: 13.56%; CoaBC: -3.667%; PfKRS1: -1.029%.
CCOC(=O)c1ccc(NC(=O)Cn2cc(I)cn2)cc1 gave ClpP1P2: -11.12%; CoaBC: 0.2532%; PfKRS1: 5.097%.
COc1ccccc1COCC(O)CN1CC(n2cccn2)C1 (configuration not stated) gave ClpP1P2: -33.16%; CoaBC: 2.915%; PfKRS1: 0.5278%.
COc1ccc(NC(=O)c2ccc(CN3CC[C@H](O)C3)cc2)c(OC)n1 gave ClpP1P2: -1.31%; CoaBC: -3.904%; PfKRS1: 1.433%.
Cc1nnc(N2CCOC(C)C2)c(C#N)c1C (configuration not stated) gave ClpP1P2: -11%; CoaBC: -2.915%; PfKRS1: -1.326%.
Cc1nc2c(c(NC(C)c3nnn[nH]3)n1)Cc1ccccc1OC2 (configuration not stated) gave ClpP1P2: -6.786%; CoaBC: 4.893%; PfKRS1: 1.83%.

The first 3 entries again:

| compound | ClpP1P2 | CoaBC | PfKRS1 |
|---|---|---|---|
| `COCC(=O)N1CCC2(CC1)CC(CC(=O)NC1CC1)c1ccccc12` (configuration not stated) | 1.701 | 5.277 | -0.285 |
| `c1cnnc(N2CCCC(NCc3ccc(-n4cccn4)cc3)C2)c1` (configuration not stated) | -7.26 | 7.436 | 2.459 |
| `COc1cnc(CSc2nnc(C)s2)cc1OCC(N)=O` | -7.665 | -0.5063 | 4.903 |